# The other results are listed elsewhere or left out.
# B1: SP15308B-bot-339-22-339 (Bacteroides ovatus) (protein)
# chain: NEWEDEQYEQYVSFKAPIASGSDGVTTIYVRYKDNGKVTYQLPIIVSGSTVNSQDRDIHIAVDKDTLKTLNIERFSLYRPELWYTEMEEDKYEFPETVHIPAGSCVELLNIDFNLQDIDMLEKWVLPLTIVDDGSYAYQSHPRKNYAKALLKVVPFNNYSGSYTASSMKVYTYINGKPDTNARTTDKRTGYVVDNNSIFFYAGLINEDMDKDMRKKYKINVHFKEDGTLDMKQDDPSNEMEFELIGTPTYSSTSVMDATRPYLERRYVQIMFEYDFQDFTYGGSGTEVIPIKYRVAGSMTLLRNINTQIPDEDQQIEW
# Legend:
# Assay in all cases: glycan array binding signal (z-score within array); higher = stronger binding
# Conditions in all cases: glycan notation: IUPAC condensed, linker removed
# [1] = target: Neu5Ac(a2-6)Gal(b1-4)GlcNAc(b1-3)Gal(b1-4)GlcNAc(b1-3)Gal(b1-4)GlcNAc
# Procedure, shortened: (§1)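 Glycan array binding is given as a within-array Z-score, which can be read as non-binding when negative. The arrays, 3228 of them, came from the Consortium for Functional Glycomics database and were retained only where the protein sequence was available. Z-scores were averaged across arrays of the same protein sequence at different concentrations or buffers and across linkers.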
# [2] = target: Neu5Ac(a2-6)Gal(b1-4)GlcNAc(b1-3)Gal(b1-4)GlcNAc(b1-3)Gal(b1-4)GlcNAc(b1-2)Man(a1-3)[Neu5Ac(a2-6)Gal(b1-4)GlcNAc(b1-3)Gal(b1-4)GlcNAc(b1-3)Gal(b1-4)GlcNAc(b1-2)Man(a1-6)]GalNAc
# Procedure, shortened: as §1
# [3] = target: Neu5Ac(a2-6)Gal(b1-4)GlcNAc(b1-3)Gal(b1-4)GlcNAc(b1-3)GalNAc
# Procedure, shortened: as §1
# [4] = target: Neu5Ac(a2-6)Gal(b1-4)GlcNAc(b1-3)Gal(b1-4)GlcNAc(b1-3)[Neu5Ac(a2-6)Gal(b1-4)GlcNAc(b1-3)Gal(b1-4)GlcNAc(b1-6)]GalNAc
# Procedure, shortened: as §1
# [5] = target: Neu5Ac(a2-6)Gal(b1-4)GlcNAc(b1-3)Gal(b1-4)GlcNAc(b1-6)[Gal(b1-3)]GalNAc
# Procedure, shortened: as §1
# [6] = target: Neu5Ac(a2-6)Gal(b1-4)GlcNAc(b1-3)Gal(b1-4)[Fuc(a1-3)]GlcNAc(b1-3)Gal(b1-4)[Fuc(a1-3)]GlcNAc
# Procedure, shortened: as §1
# [7] = target: Neu5Ac(a2-6)Gal(b1-4)GlcNAc(b1-3)GalNAc
# Procedure, shortened: as §1
# [8] = target: Neu5Ac(a2-6)Gal(b1-4)GlcNAc(b1-3)[Neu5Ac(a2-6)Gal(b1-4)GlcNAc(b1-6)]GalNAc
# Procedure, shortened: as §1
# [9] = target: Neu5Ac(a2-6)Gal(b1-4)GlcNAc(b1-6)GalNAc
# Procedure, shortened: as §1
# [10] = target: Neu5Ac(a2-6)Gal(b1-4)GlcNAc(b1-6)[Gal(b1-3)GlcNAc(b1-3)]Gal(b1-4)Glc
# Procedure, shortened: as §1
# [11] = target: Neu5Ac(a2-6)Gal(b1-4)GlcNAc(b1-6)[Gal(b1-3)]GalNAc
# Procedure, shortened: as §1
# [12] = target: Neu5Ac(a2-6)Gal(b1-4)GlcNAc6S
# Procedure, shortened: as §1
# Neu5Ac(a2-6)GalNAc = target: Neu5Ac(a2-6)GalNAc
# Procedure, shortened: as §1
# [13] = target: Neu5Ac(a2-6)GalNAc(b1-4)GlcNAc
# Procedure, shortened: as §1
# [14] = target: Neu5Ac(a2-6)GalNAc(b1-4)GlcNAc6S
# Procedure, shortened: as §1
# [15] = target: Neu5Ac(a2-6)GlcNAc(b1-4)GlcNAc
# Procedure, shortened: as §1
# [16] = target: Neu5Ac(a2-6)GlcNAc(b1-4)GlcNAc(b1-4)GlcNAc
# Procedure, shortened: as §1
# Neu5Ac(a2-8)Neu5Ac = target: Neu5Ac(a2-8)Neu5Ac
# Procedure, shortened: as §1
# [17] = target: Neu5Ac(a2-8)Neu5Ac(a2-3)Gal(b1-3)GalNAc(b1-4)[Neu5Ac(a2-3)]Gal(b1-4)Glc
# Procedure, shortened: as §1
# [18] = target: Neu5Ac(a2-8)Neu5Ac(a2-3)Gal(b1-3)GalNAc(b1-4)[Neu5Ac(a2-8)Neu5Ac(a2-3)]Gal(b1-4)Glc
# Procedure, shortened: as §1
# [19] = target: Neu5Ac(a2-8)Neu5Ac(a2-3)Gal(b1-4)Glc
# Procedure, shortened: as §1
# [20] = target: Neu5Ac(a2-8)Neu5Ac(a2-3)Gal(b1-4)GlcNAc
# Procedure, shortened: as §1
# [21] = target: Neu5Ac(a2-8)Neu5Ac(a2-3)[Gal(b1-3)GalNAc(b1-4)]Gal(b1-4)Glc
# Procedure, shortened: as §1
# [22] = target: Neu5Ac(a2-8)Neu5Ac(a2-3)[GalNAc(b1-4)]Gal(b1-4)Glc
# Procedure, shortened: as §1
# [23] = target: Neu5Ac(a2-8)Neu5Ac(a2-8)Neu5Ac
# Procedure, shortened: as §1
# [24] = target: Neu5Ac(a2-8)Neu5Ac(a2-8)Neu5Ac(a2-3)Gal(b1-4)Glc
# Procedure, shortened: as §1
# [25] = target: Neu5Ac(a2-8)Neu5Ac(a2-8)Neu5Ac(a2-3)[Gal(b1-3)GalNAc(b1-4)]Gal(b1-4)Glc
# Procedure, shortened: as §1
# [26] = target: Neu5Ac(a2-8)Neu5Ac(a2-8)Neu5Ac(a2-3)[GalNAc(b1-4)]Gal(b1-4)Glc
# Procedure, shortened: as §1
# [27] = target: Neu5Ac(a2-8)Neu5Ac(a2-8)Neu5Ac(a2-8)Neu5Ac(a2-3)[GalNAc(b1-4)]Gal(b1-4)Glc
# Procedure, shortened: as §1
# [28] = target: Neu5Ac(a2-8)Neu5Gc(a2-3)Gal(b1-4)GlcNAc
# Procedure, shortened: as §1
# [29] = target: Neu5Ac(b2-6)Gal(b1-4)GlcNAc
# Procedure, shortened: as §1
# Neu5Ac(b2-6)GalNAc = target: Neu5Ac(b2-6)GalNAc
# Procedure, shortened: as §1
# [30] = target: Neu5Ac9Ac(a2-3)Gal(b1-3)GlcNAc
# Procedure, shortened: as §1
# [31] = target: Neu5Ac9Ac(a2-3)Gal(b1-4)GlcNAc
# Procedure, shortened: as §1
# [32] = target: Neu5Ac9Ac(a2-6)Gal(b1-4)GlcNAc
# Procedure, shortened: as §1
# [33] = target: Neu5Gc(a2-3)Gal(b1-3)GlcNAc
# Procedure, shortened: as §1
# [34] = target: Neu5Gc(a2-3)Gal(b1-3)[Fuc(a1-4)]GlcNAc
# Procedure, shortened: as §1
# Neu5Gc(a2-3)Gal(b1-4)Glc = target: Neu5Gc(a2-3)Gal(b1-4)Glc
# Procedure, shortened: as §1
# [35] = target: Neu5Gc(a2-3)Gal(b1-4)GlcNAc
# Procedure, shortened: as §1
# [36] = target: Neu5Gc(a2-3)Gal(b1-4)GlcNAc(b1-3)Gal(b1-4)GlcNAc(b1-2)Man(a1-3)[Neu5Gc(a2-3)Gal(b1-4)GlcNAc(b1-3)Gal(b1-4)GlcNAc(b1-2)Man(a1-6)]Man(b1-4)GlcNAc(b1-4)GlcNAc
# Procedure, shortened: as §1
# [37] = target: Neu5Gc(a2-3)Gal(b1-4)[Fuc(a1-3)]GlcNAc
# Procedure, shortened: as §1
# [38] = target: Neu5Gc(a2-6)Gal(b1-4)GlcNAc
# Procedure, shortened: as §1
# Neu5Gc(a2-6)GalNAc = target: Neu5Gc(a2-6)GalNAc
# Procedure, shortened: as §1
# [39] = target: Neu5Gc(a2-8)Neu5Ac(a2-3)Gal(b1-4)GlcNAc
# Procedure, shortened: as §1
# [40] = target: Neu5Gc(a2-8)Neu5Gc(a2-3)Gal(b1-4)GlcNAc
# Procedure, shortened: as §1
binder,measurement,setting,value
B1,glycan array binding signal (z-score),[1],-0.621
same,glycan array binding signal (z-score),[2],0.664
same,glycan array binding signal (z-score),[3],-0.263
same,glycan array binding signal (z-score),[4],-0.302
same,glycan array binding signal (z-score),[5],-0.651
same,glycan array binding signal (z-score),[6],-0.091
same,glycan array binding signal (z-score),[7],-0.409
same,glycan array binding signal (z-score),[8],-0.486
same,glycan array binding signal (z-score),[9],0.549
same,glycan array binding signal (z-score),[10],-0.278
same,glycan array binding signal (z-score),[11],-0.51
same,glycan array binding signal (z-score),[12],0.042
same,glycan array binding signal (z-score),Neu5Ac(a2-6)GalNAc,0.169
same,glycan array binding signal (z-score),[13],-0.157
same,glycan array binding signal (z-score),[14],-0.231
same,glycan array binding signal (z-score),[15],-0.29
same,glycan array binding signal (z-score),[16],-0.306
same,glycan array binding signal (z-score),Neu5Ac(a2-8)Neu5Ac,-0.04
same,glycan array binding signal (z-score),[17],-0.298
same,glycan array binding signal (z-score),[18],0.089
same,glycan array binding signal (z-score),[19],0.028
same,glycan array binding signal (z-score),[20],-0.044
same,glycan array binding signal (z-score),[21],-0.005
same,glycan array binding signal (z-score),[22],0.181
same,glycan array binding signal (z-score),[23],0.118
same,glycan array binding signal (z-score),[24],-0.189
same,glycan array binding signal (z-score),[25],-0.175
same,glycan array binding signal (z-score),[26],-0.473
same,glycan array binding signal (z-score),[27],-0.248
same,glycan array binding signal (z-score),[28],-0.498
same,glycan array binding signal (z-score),[29],-0.378
same,glycan array binding signal (z-score),Neu5Ac(b2-6)GalNAc,-0.627
same,glycan array binding signal (z-score),[30],-0.339
same,glycan array binding signal (z-score),[31],-0.54
same,glycan array binding signal (z-score),[32],-0.663
same,glycan array binding signal (z-score),[33],-0.652
same,glycan array binding signal (z-score),[34],-0.334
same,glycan array binding signal (z-score),Neu5Gc(a2-3)Gal(b1-4)Glc,-0.15
same,glycan array binding signal (z-score),[35],0.215
same,glycan array binding signal (z-score),[36],0.213
same,glycan array binding signal (z-score),[37],-0.265
same,glycan array binding signal (z-score),[38],-0.205
same,glycan array binding signal (z-score),Neu5Gc(a2-6)GalNAc,-0.199
same,glycan array binding signal (z-score),[39],-0.481
same,glycan array binding signal (z-score),[40],-0.454

# Part of the list above, tab-delimited:
binder	measurement	setting	value
B1	glycan array binding signal (z-score)	[7]	-0.409
same	glycan array binding signal (z-score)	[9]	0.549
same	glycan array binding signal (z-score)	Neu5Ac(a2-6)GalNAc	0.169
same	glycan array binding signal (z-score)	[15]	-0.29
same	glycan array binding signal (z-score)	Neu5Ac(a2-8)Neu5Ac	-0.04
same	glycan array binding signal (z-score)	[24]	-0.189
same	glycan array binding signal (z-score)	[25]	-0.175
same	glycan array binding signal (z-score)	[27]	-0.248
same	glycan array binding signal (z-score)	[28]	-0.498
same	glycan array binding signal (z-score)	[29]	-0.378
same	glycan array binding signal (z-score)	[33]	-0.652
same	glycan array binding signal (z-score)	[34]	-0.334
same	glycan array binding signal (z-score)	Neu5Gc(a2-3)Gal(b1-4)Glc	-0.15
